Data set [1] relates to BEAS-2B cells.
In data set [2] the test system is BEAS-2B cells. The note with it: gene NM_004265; BEAS-2B treated with amiodarone.
For data set [3] the following is noted: cited from earlier work.

Each structure is given as a SMILES string.

Consider `CCCCc1oc2ccccc2c1C(=O)c1cc(I)c(OCCN(CC)CC)c(I)c1` [amiodarone], for which, in data set [1] (gene Fatty acid desaturase 2, NM_004265, up-regulated, amiodarone at IC20, 48 hours), the “Ratio of intermediate value, FADS2” value amounted to 2.032. Also, the “cDNA microarray (Cy3/Cy5 ratio), Fatty acid desaturase 2” value in data set [1] (gene NM_004265, Table 5, BEAS-2B treated with amiodarone) is given as 3.498. The “Real time PCR (relative ratio), Fatty acid desaturase 2” value in data set [2] stood at 2.0322. The “patients with pulmonary toxicity” value in data set [3] (among the patients exhibiting side effects) was 5-15%. Also, in data set [3] (patients treated with amiodarone), the “patients with rash or other skin disorders changing skin color into blue gray, ecchymosis, alopecia, and hypotension” value was “less than 1%”.

The values are drawn from patent publication US20110190155A1, “MARKER GENES BASED ON AMIODARONE TREATMENT FOR SCREENING OF DRUG INDUCING PULMONARY TOXICITY AND SCREENING METHODS USING THE SAME” (Korea Institute of Science and Technology, priority 2007, published 2011).
